From article PMC10001202, “Preparation, Identification and Preliminary Application of the Fenvalerate Monoclonal Antibody in Six Kinds of Dark Tea” (Foods, 2023)

Assay: recovery of fenvalerate from spiked dark tea samples by ELISA with McAb secreted by 1B6
[1] = Enshi dark tea, spiked 25 ng/mL
[2] = Enshi dark tea, spiked 50 ng/mL
[3] = Enshi dark tea, spiked 100 ng/mL
[4] = Qingzhuan tea, spiked 100 ng/mL
[5] = Selenium-enriched Enshi dark tea, spiked 25 ng/mL
[6] = Selenium-enriched Enshi dark tea, spiked 50 ng/mL
[7] = Selenium-enriched Enshi dark tea, spiked 100 ng/mL

CC(C)C(C(=O)OC(C#N)c1cccc(Oc2ccccc2)c1)c1ccc(Cl)cc1 (centres unmarked) [Fenvalerate]
Measured [1]: 18.3 ng/mL | Recovery [1]: 73.2% | Measured [2]: 47.2 ng/mL | Recovery [2]: 94.4% | Measured [3]: 96.8 ng/mL | Recovery [3]: 96.8% | Measured (Fu Brick tea, spiked 25 ng/mL): 21.1 ng/mL | Recovery (Fu Brick tea, spiked 25 ng/mL): 84.4% | Measured (Fu Brick tea, spiked 50 ng/mL): 48.3 ng/mL | Recovery (Fu Brick tea, spiked 50 ng/mL): 96.6% | Measured (Fu Brick tea, spiked 100 ng/mL): 97.5 ng/mL | Recovery (Fu Brick tea, spiked 100 ng/mL): 97.5% | Measured (Liupao tea, spiked 25 ng/mL): 22.2 ng/mL | Recovery (Liupao tea, spiked 25 ng/mL): 88.8% | Measured (Liupao tea, spiked 50 ng/mL): 46.5 ng/mL | Recovery (Liupao tea, spiked 50 ng/mL): 93% | Measured (Liupao tea, spiked 100 ng/mL): 96.7 ng/mL | Recovery (Liupao tea, spiked 100 ng/mL): 96.7% | Measured (Pu‘er tea, spiked 25 ng/mL): 19.2 ng/mL | Recovery (Pu‘er tea, spiked 25 ng/mL): 76.8% | Measured (Pu‘er tea, spiked 50 ng/mL): 45.1 ng/mL | Recovery (Pu‘er tea, spiked 50 ng/mL): 90.2% | Measured (Pu‘er tea, spiked 100 ng/mL): 99.8 ng/mL | Recovery (Pu‘er tea, spiked 100 ng/mL): 99.8% | Measured (Qingzhuan tea, spiked 25 ng/mL): 21.8 ng/mL | Recovery (Qingzhuan tea, spiked 25 ng/mL): 87.2% | Measured (Qingzhuan tea, spiked 50 ng/mL): 44.8 ng/mL | Recovery (Qingzhuan tea, spiked 50 ng/mL): 89.6% | Measured [4]: 98.5 ng/mL | Recovery [4]: 98.5% | Measured [5]: 18.6 ng/mL | Recovery [5]: 74.4% | Measured [6]: 47.9 ng/mL | Recovery [6]: 95.8% | Measured [7]: 99.3 ng/mL | Recovery [7]: 99.3% | Recovery (dark teas, added Fen standard 25 ng/mL): 73.2–88.8% | Recovery (dark teas, added Fen standard 100 ng/mL): 96.7–99.8%
